The target in experiment [1] is PI-CFP / PI-YFP (Arabidopsis thaliana) (UniProt P48007). Put plainly: FRET or BRET; FRET-FLIM in Arabidopsis leaf protoplasts; carboxy-terminal CFP (donor) and YFP (acceptor) fusions; donor lifetime measured on the central part of the nucleus, at least ten cells a combination in three experiments. Background: BRET reads energy transfer from a luciferase to a nearby fluorophore.

The target in experiment [2] is T1, AP3-CFP / AP3-YFP (Arabidopsis thaliana), P35632.
T1 chain: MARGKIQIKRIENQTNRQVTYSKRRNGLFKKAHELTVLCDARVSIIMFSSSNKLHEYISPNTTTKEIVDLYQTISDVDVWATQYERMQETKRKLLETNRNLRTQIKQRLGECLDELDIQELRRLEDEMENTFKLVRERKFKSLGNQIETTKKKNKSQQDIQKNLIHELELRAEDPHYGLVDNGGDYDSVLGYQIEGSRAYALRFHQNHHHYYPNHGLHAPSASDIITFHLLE
Description: FRET or BRET; FRET-FLIM in Arabidopsis leaf protoplasts between PI-CFP and AP3-YFP in the presence of a non-labeled SEP3 protein. Conditions: remark: other sources report otherwise.

Experiment [3] concerns the target T1, AP3-CFP / AP3-YFP (Arabidopsis …). Put plainly: FRET or BRET; FRET-FLIM in Arabidopsis leaf protoplasts; carboxy-terminal CFP (donor) and YFP (acceptor) fusions; donor lifetime measured on the central part of the nucleus, at least ten cells a combination in three experiments. Conditions: remark: other sources report otherwise.
The target of experiment [4] is SEP1-SEP2 dimer (Arabidopsis thaliana) (UniProt P29382+P29384). Description: yeast three-hybrid; yeast PJ69-4; dimer clones (one partner fused to GAL4-AD, the other to a nuclear localization signal only, pARC352) mated with single proteins fused to GAL4-BD; growth on -L -W -A -H with 1, 5 or 10 mM 3-AT at 20°C for 7 days, and LacZ assay.
Experiment [5] deals with AP3-CFP / AP3-YFP (Arabidopsis thaliana) (UniProt P35632). Description: FRET or BRET; FRET-FLIM in Arabidopsis leaf protoplasts; carboxy-terminal CFP (donor) and YFP (acceptor) fusions; donor lifetime measured on the central part of the nucleus, at least ten cells a combination in three experiments.
Substrate in experiment [6]: PI with SEP3ΔC2 (in the yeast three-hybrid screen with the SEP3ΔC2 collection) (Arabidopsis thaliana) (UniProt P48007+O22456)
Description: yeast three-hybrid; yeast PJ69-4; dimer clones (one partner fused to GAL4-AD, the other to a nuclear localization signal only, pARC352) mated with single proteins fused to GAL4-BD; growth on -L -W -A -H with 1, 5 or 10 mM 3-AT at 20°C for 7 days, and LacZ assay.

Experiment [7] deals with T2, SEP3-CFP / SEP3-YFP (Arabidopsis thaliana), O22456.
T2 chain: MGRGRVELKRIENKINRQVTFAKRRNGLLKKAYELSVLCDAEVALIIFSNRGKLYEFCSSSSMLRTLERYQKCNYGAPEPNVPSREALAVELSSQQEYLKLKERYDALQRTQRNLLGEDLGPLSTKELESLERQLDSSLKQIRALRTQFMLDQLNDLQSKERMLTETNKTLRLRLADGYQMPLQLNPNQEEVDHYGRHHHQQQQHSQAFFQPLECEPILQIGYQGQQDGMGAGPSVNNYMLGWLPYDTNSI
Put plainly: FRET or BRET; FRET-FLIM in Arabidopsis leaf protoplasts; carboxy-terminal CFP (donor) and YFP (acceptor) fusions; donor lifetime measured on the central part of the nucleus, at least ten cells a combination in three experiments. Conditions: remark: other sources report otherwise.

Results are given in words; binding and its absence hold for the method and conditions named. For some of these results: Binding seen in cells or lysates may run through a third protein. Some binding calls cover weakened binding; strength is not graded here. For some of these results: Where a sequence is shown, tags or fusion partners need not be part of it.

B1: PI-CFP / PI-YFP (protein, UniProt P48007 1-208)
chain: MGRGKIEIKRIENANNRVVTFSKRRNGLVKKAKEITVLCDAKVALIIFASNGKMIDYCCPSMDLGAMLDQYQKLSGKKLWDAKHENLSNEIDRIKKENDSLQLELRHLKGEDIQSLNLKNLMAVEHAIEHGLDKVRDHQMEILISKRRNEKMMAEEQRQLTFQLQQQEMAIASNARGMMMRDHDGQFGYRVQPIQPNLQEKIMSLVID
With B1, the binding entry in experiment [1] is recorded as “binds weakly”.

B2: PI-CFP / PI-YFP, P48007 1-208 (protein)
chain: MGRGKIEIKRIENANNRVVTFSKRRNGLVKKAKEITVLCDAKVALIIFASNGKMIDYCCPSMDLGAMLDQYQKLSGKKLWDAKHENLSNEIDRIKKENDSLQLELRHLKGEDIQSLNLKNLMAVEHAIEHGLDKVRDHQMEILISKRRNEKMMAEEQRQLTFQLQQQEMAIASNARGMMMRDHDGQFGYRVQPIQPNLQEKIMSLVID
Take B2: the binding result in experiment [2] and in experiment [3] was “binds” in each case.

B3: ARABIDOPSIS BSISTER, long splice form (ABS-I) (protein, UniProt Q8RYD9 1-252)
chain: MGRGKIEIKKIENQTARQVTFSKRRTGLIKKTRELSILCDAHIGLIVFSATGKLSEFCSEQNRMPQLIDRYLHTNGLRLPDHHDDQEQLHHEMELLRRETCNLELRLRPFHGHDLASIPPNELDGLERQLEHSVLKVRERKNELMQQQLENLSRKRRMLEEDNNNMYRWLHEHRAAMEFQQAGIDTKPGEYQQFIEQLQCYKPGEYQQFLEQQQQQPNSVLQLATLPSEIDPTYNLQLAQPNLQNDPTAQND
As to B3, the binding result in experiment [4] was “binds”.

B4: AP3-CFP / AP3-YFP (protein, UniProt P35632 1-232)
chain: MARGKIQIKRIENQTNRQVTYSKRRNGLFKKAHELTVLCDARVSIIMFSSSNKLHEYISPNTTTKEIVDLYQTISDVDVWATQYERMQETKRKLLETNRNLRTQIKQRLGECLDELDIQELRRLEDEMENTFKLVRERKFKSLGNQIETTKKKNKSQQDIQKNLIHELELRAEDPHYGLVDNGGDYDSVLGYQIEGSRAYALRFHQNHHHYYPNHGLHAPSASDIITFHLLE
For B4, the binding entry in experiment [5] is listed as “binds weakly”.

B5: APETALA3 (AP3), full length, in yeast (protein, UniProt P35632 1-232)
chain: MARGKIQIKRIENQTNRQVTYSKRRNGLFKKAHELTVLCDARVSIIMFSSSNKLHEYISPNTTTKEIVDLYQTISDVDVWATQYERMQETKRKLLETNRNLRTQIKQRLGECLDELDIQELRRLEDEMENTFKLVRERKFKSLGNQIETTKKKNKSQQDIQKNLIHELELRAEDPHYGLVDNGGDYDSVLGYQIEGSRAYALRFHQNHHHYYPNHGLHAPSASDIITFHLLE
For the molecule B5, the binding entry in experiment [6] is “binds”.

B6: SEP3-CFP / SEP3-YFP, O22456 1-251 (protein)
chain: MGRGRVELKRIENKINRQVTFAKRRNGLLKKAYELSVLCDAEVALIIFSNRGKLYEFCSSSSMLRTLERYQKCNYGAPEPNVPSREALAVELSSQQEYLKLKERYDALQRTQRNLLGEDLGPLSTKELESLERQLDSSLKQIRALRTQFMLDQLNDLQSKERMLTETNKTLRLRLADGYQMPLQLNPNQEEVDHYGRHHHQQQQHSQAFFQPLECEPILQIGYQGQQDGMGAGPSVNNYMLGWLPYDTNSI
In the case of B6, the binding result in experiment [7] is “binds”.

Values taken from article PMC2688274.
